Assay results published in patent US20240344241A1, “PROTEINACEOUS MOLECULES AND USES THEREFOR” (THE UNIVERSITY OF QUEENSLAND, priority 2021, published 2024).

Experiment: Ex vivo extracorporeal membrane oxygenation (ECMO) model, circuit parameters
Parameters: species or system human
Conditions: over the 6 h time course; MCoFx7 single dose 20 μM, heparin 350 UI plus top-ups

| Compound | delta oxygenator P [mmHg] |
| --- | --- |
| CC[C@H](C)[C@@H]1NC(=O)CNC(=O)CNC(=O)[C@H](CC(=O)O)NC(=O)[C@H](CO)NC(=O)CNC(=O)[C@H](CO)NC(=O)CNC(=O)[C@@H]2CSSC[C@@H]3NC(=O)[C@H](CC(=O)O)NC(=O)[C@H](CO)NC(=O)[C@H](CC(=O)O)NC(=O)[C@H](CCCNC(=N)N)NC(=O)[C@H](CCCNC(=N)N)NC(=O)[C@@H]4CSSC[C@H](NC(=O)[C@H]([C@@H](C)CC)NC(=O)[C@H](CSSC[C@H](NC1=O)C(=O)N1CCC[C@H]1C(=O)N[C@@H](CCCNC(=N)N)C(=O)N[C@@H]([C@@H](C)CC)C(=O)NCC(=O)N[C@@H](CCCNC(=N)N)C(=O)N[C@@H](CC(C)C)C(=O)N4)NC(=O)[C@H](C)NC(=O)CNC(=O)[C@@H]1CCCN1C3=O)C(=O)N[C@@H](CCCNC(=N)N)C(=O)N[C@@H](C)C(=O)N[C@@H]([C@@H](C)O)C(=O)N[C@@H](CCCNC(=N)N)C(=O)N[C@@H](Cc1ccccc1)C(=O)N2 [Cyclic MCoFx7] (cyclo(ACICRATRFCGSGSDGGICPRIGRLCRRDSDCPG); disulfide 2-19, 4-26, 10-32) | ~23 |
| heparin [reference compound] | ~23 |

Bridge positions count the residues as written; N and C are the ends. Peptide text beside a SMILES is read from it.
